Values from PubChem BioAssay AID743454 (Peter MacCallum Cancer Centre, 2014)

Screen: 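Genes whose loss kills vorinostat-resistant colon cancer cells under vorinostat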 (primary screen)
Cell system: human HCT116-VR colon cancer cells, selected for vorinostat resistance
Reagent: siRNA pool against human genes, 40 nM siRNA pool
Duration: vorinostat for 24 h, read-out about 72 h after transfection
Conditions: vorinostat at 2.5 µM final
Detection: 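Two measures, CellTiter-Fluor viability and luminescent caspase 3/7 activity, each as fold change against same-plate mock wells, mean of duplicates, then screen-wide robust z-score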
Direction: viability robust z-score: higher = more viable cells than screen typical; caspase robust z-score: higher = more caspase 3/7 activity than screen typical
Rule for the call: 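Hits are knock-downs in viability class RV1/RV2 or caspase class CA1/CA2, excluding ones that killed cells in the no-drug cell-count arm; hits then retested with single siRNAs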
In all, the deposit lists about 18,000 reagents; shown is an unselected part. In the full data, 450 (2.5%) are marked active. 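Single biological run; no consistent viability z cut-off exists, so the class columns, not z-scores, define the calls.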 Entries without a mark were called inactive.

Gene | PubChem SID | viability hit class | caspase hit class | viability robust z-score | caspase robust z-score
PSMB8 (proteasome 20S subunit beta 8) | SID152153602 | no change | no change | -1.39 | 1.77
BEX3 (brain expressed X-linked 3) | SID152151485 | no change | no change | -1.46 | 0.94
PON2 (paraoxonase 2) | SID135621819 | no change | no change | -0.6 | 0.55
TBC1D13 (TBC1 domain family member 13) | SID134320917 | no change | no change | 2.44 | -0.68
CTNNA3 (catenin alpha 3) | SID134324023 | no change | no change | 1.18 | 0.12
IFNA1 (interferon alpha 1) | SID134316972 | no change | no change | 0.28 | -0.75
PCDHAC1 (protocadherin alpha subfamily C, 1) | SID135622486 | no change | no change | -0.29 | -0.68
PUM3 (pumilio RNA binding family member 3) | SID152154928 | no change | no change | -0.42 | 1.64
HPN (hepsin) | SID134310398 | no change | no change | -0.01 | 1.25
EEF1A2 (eukaryotic translation elongation factor 1 alpha 2) | SID134310128 | no change | no change | 0.86 | -0.32
HAVCR1 (hepatitis A virus cellular receptor 1) | SID135623853 | no change | no change | 0.57 | -0.28
RABL6 (RAB, member RAS oncogene family like 6) | SID134329261 | no change | no change | 0.32 | 0.4
EIF1AY (eukaryotic translation initiation factor 1A Y-linked) | SID134316221 | no change | no change | 1.82 | -1.19
DSCAML1 (DS cell adhesion molecule like 1) | SID134312820 | no change | no change | -0.74 | 0.88
C22orf42 (chromosome 22 open reading frame 42) | SID135624461 | no change | no change | -1.32 | -0.76
LMBRD2 (LMBR1 domain containing 2) | SID152149115 | no change | no change | -0.21 | -0.11
PLVAP (plasmalemma vesicle associated protein) | SID134318820 | RV2 (reduced viability) (active) | no change | -2.91 | 0.5
PDCL2 (phosducin like 2) | SID152147873 | no change | no change | -0.17 | -1.07
HCLS1 (hematopoietic cell-specific Lyn substrate 1) | SID134321652 | no change | no change | -0.73 | -0.22
NFXL1 (nuclear transcription factor, X-box binding like 1) | SID135624211 | no change | no change | -0.36 | 0.79
OR11H4 (olfactory receptor family 11 subfamily H member 4) | SID152149542 | no change | no change | -0.23 | 0.76
CFAP36 (cilia and flagella associated protein 36) | SID152151027 | no change | no change | -0.69 | 0.2
CACNG4 (calcium voltage-gated channel auxiliary subunit gamma 4) | SID152153871 | no change | no change | 2.13 | 2.7
HOXB1 (homeobox B1) | SID152149615 | no change | no change | 0.7 | 2.22
THAP11 (THAP domain containing 11) | SID135624207 | no change | no change | -0.14 | 1.38
INTS13 (integrator complex subunit 13) | SID135624019 | no change | no change | 0.5 | 2
LPCAT3 (lysophosphatidylcholine acyltransferase 3) | SID152148122 | no change | no change | 1.12 | 1.26
JAK1 (Janus kinase 1) | SID152154758 | no change | no change | 1.33 | -0.53
ETNK1 (ethanolamine kinase 1) | SID152152739 | no change | no change | 0.9 | 0.3
MTMR7 (myotubularin related protein 7) | SID135621493 | no change | no change | 0.73 | 1.6
HROB (homologous recombination factor with OB-fold) | SID134321953 | no change | no change | 0.21 | -0.18
AK9 (adenylate kinase 9) | SID134322300 | no change | no change | -0.88 | -0.52
AK9 (adenylate kinase 9) | SID135625293 | no change | no change | -0.14 | -0.27
AK9 (adenylate kinase 9) | SID152155759 | no change | no change | -1.25 | 0.74
GALNT14 (polypeptide N-acetylgalactosaminyltransferase 14) | SID152149607 | no change | no change | 1.31 | -0.78
GDF11 (growth differentiation factor 11) | SID134316383 | no change | no change | 0.35 | 0.7
ORMDL3 (ORMDL sphingolipid biosynthesis regulator 3) | SID134320967 | no change | no change | -0.48 | 2.08
NKX2-3 (NK2 homeobox 3) | SID152152495 | no change | no change | -0.2 | -0.52
BAAT (bile acid-CoA:amino acid N-acyltransferase) | SID134313134 | no change | no change | -0.62 | 1.66

6 entries from above, reformatted.
IFNA1 (interferon alpha 1) [SID134316972]
- viability hit class: no change
- caspase hit class: no change
- viability robust z-score: 0.28
- caspase robust z-score: -0.75

PCDHAC1 (protocadherin alpha subfamily C, 1) [SID135622486]
- viability hit class: no change
- caspase hit class: no change
- viability robust z-score: -0.29
- caspase robust z-score: -0.68

PUM3 (pumilio RNA binding family member 3) [SID152154928]
- viability hit class: no change
- caspase hit class: no change
- viability robust z-score: -0.42
- caspase robust z-score: 1.64

HPN (hepsin) [SID134310398]
- viability hit class: no change
- caspase hit class: no change
- viability robust z-score: -0.01
- caspase robust z-score: 1.25

EEF1A2 (eukaryotic translation elongation factor 1 alpha 2) [SID134310128]
- viability hit class: no change
- caspase hit class: no change
- viability robust z-score: 0.86
- caspase robust z-score: -0.32

HAVCR1 (hepatitis A virus cellular receptor 1) [SID135623853]
- viability hit class: no change
- caspase hit class: no change
- viability robust z-score: 0.57
- caspase robust z-score: -0.28
